The list shows a part of the results.
Experiments:
Test in all cases: log2 fold change, soluble protein after heating vs DMSO (PISA); higher = thermal stabilisation; K562 cells, 10 uM, 30 min; active = over 0.2 and 3.5 SD of the protein, either way, in both replicates (recomputed)
bafetinib = compound: Cc1ccc(NC(=O)c2ccc(CN3CC[C@H](N(C)C)C3)c(C(F)(F)F)c2)cc1Nc1nccc(-c2cncnc2)n1 [bafetinib]
How it was run: (§1)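 Thermal stability values are relative to control samples and come from duplicates. They are expressed as log2 fold changes. For measurement, K562 cells (2×10^6 cells/mL) received 10 μM compound for 30 min, and aliquots were heated for 3 min over 48°C-58°C, pooled, and extracted at 4°C in PBS with 0.5% NP-40. Soluble protein, the supernatant after 21,000xg for 90 min, was quantified by TMTpro 16plex LC-MS/MS with equalised channel sums.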

Protein sequences, listed by entry. Tags and fused reporters are not part of them. Lines headed by an entry give the natural chain unless they say otherwise; changes in a name come on top.
UniProt P99999: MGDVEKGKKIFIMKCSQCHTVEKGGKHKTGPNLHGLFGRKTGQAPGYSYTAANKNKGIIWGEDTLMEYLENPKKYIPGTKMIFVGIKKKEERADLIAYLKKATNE
UniProt Q96F07, whole entry, looked up: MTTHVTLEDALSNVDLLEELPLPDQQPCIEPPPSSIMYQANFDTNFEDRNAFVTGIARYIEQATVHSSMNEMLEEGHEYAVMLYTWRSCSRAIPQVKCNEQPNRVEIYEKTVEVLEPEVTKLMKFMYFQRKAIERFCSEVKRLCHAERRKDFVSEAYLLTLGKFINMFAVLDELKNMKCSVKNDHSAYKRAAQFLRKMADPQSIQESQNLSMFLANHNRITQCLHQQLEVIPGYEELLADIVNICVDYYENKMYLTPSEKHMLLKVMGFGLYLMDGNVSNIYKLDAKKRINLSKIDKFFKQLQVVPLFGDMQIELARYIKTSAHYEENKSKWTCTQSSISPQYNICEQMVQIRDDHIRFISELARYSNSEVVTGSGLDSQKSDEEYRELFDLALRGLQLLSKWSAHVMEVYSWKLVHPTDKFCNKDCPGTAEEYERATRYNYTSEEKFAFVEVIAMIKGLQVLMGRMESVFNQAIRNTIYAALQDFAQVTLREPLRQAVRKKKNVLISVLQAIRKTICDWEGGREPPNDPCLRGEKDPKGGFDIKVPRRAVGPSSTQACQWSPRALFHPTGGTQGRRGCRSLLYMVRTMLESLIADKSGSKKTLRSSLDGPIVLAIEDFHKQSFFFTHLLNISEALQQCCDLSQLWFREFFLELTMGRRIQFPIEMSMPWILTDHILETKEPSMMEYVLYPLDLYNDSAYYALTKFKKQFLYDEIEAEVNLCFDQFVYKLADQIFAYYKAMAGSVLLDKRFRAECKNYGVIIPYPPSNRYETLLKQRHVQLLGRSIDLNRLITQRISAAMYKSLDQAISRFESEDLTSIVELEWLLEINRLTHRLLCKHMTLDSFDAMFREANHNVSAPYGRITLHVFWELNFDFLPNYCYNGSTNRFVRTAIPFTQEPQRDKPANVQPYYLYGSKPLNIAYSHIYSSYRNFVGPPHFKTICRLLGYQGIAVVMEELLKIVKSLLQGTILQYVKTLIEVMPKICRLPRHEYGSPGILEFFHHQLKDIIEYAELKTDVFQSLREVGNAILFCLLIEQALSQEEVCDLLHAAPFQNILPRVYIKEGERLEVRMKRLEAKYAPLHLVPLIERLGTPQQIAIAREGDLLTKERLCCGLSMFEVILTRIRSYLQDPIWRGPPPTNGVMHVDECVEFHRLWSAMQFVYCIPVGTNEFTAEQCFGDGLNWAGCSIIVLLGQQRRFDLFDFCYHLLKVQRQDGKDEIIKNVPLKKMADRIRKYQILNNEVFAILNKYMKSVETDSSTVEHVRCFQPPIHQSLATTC
UniProt Q6UX04: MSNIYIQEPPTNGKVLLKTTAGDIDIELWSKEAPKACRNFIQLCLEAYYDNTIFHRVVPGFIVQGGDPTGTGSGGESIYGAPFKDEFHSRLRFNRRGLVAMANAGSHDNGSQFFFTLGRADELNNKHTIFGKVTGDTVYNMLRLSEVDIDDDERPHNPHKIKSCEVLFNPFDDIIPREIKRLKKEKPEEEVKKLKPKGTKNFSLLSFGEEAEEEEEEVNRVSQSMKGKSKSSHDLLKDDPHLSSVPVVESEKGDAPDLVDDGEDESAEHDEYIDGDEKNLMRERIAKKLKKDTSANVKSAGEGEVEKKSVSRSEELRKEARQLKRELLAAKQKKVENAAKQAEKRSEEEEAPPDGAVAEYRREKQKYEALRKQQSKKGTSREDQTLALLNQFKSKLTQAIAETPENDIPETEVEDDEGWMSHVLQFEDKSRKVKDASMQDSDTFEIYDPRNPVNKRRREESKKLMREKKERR
UniProt Q8NCG7: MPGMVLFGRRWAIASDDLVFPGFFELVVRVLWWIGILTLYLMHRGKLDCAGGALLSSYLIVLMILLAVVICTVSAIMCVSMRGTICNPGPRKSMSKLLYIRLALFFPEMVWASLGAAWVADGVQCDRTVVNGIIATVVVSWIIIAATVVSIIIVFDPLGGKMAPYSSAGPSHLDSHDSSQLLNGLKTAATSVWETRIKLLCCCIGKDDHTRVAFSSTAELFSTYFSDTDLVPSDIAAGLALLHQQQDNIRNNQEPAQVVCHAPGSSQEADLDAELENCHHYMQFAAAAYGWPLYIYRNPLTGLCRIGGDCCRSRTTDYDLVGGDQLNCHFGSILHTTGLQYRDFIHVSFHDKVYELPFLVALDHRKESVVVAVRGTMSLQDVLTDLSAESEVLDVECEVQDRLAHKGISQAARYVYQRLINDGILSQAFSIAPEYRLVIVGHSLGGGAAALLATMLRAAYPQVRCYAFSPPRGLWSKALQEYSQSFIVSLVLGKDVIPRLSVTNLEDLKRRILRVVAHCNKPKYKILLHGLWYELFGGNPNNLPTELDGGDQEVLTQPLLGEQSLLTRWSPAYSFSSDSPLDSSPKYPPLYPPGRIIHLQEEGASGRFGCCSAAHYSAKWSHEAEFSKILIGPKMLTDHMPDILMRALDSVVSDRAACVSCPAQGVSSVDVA
UniProt P49711: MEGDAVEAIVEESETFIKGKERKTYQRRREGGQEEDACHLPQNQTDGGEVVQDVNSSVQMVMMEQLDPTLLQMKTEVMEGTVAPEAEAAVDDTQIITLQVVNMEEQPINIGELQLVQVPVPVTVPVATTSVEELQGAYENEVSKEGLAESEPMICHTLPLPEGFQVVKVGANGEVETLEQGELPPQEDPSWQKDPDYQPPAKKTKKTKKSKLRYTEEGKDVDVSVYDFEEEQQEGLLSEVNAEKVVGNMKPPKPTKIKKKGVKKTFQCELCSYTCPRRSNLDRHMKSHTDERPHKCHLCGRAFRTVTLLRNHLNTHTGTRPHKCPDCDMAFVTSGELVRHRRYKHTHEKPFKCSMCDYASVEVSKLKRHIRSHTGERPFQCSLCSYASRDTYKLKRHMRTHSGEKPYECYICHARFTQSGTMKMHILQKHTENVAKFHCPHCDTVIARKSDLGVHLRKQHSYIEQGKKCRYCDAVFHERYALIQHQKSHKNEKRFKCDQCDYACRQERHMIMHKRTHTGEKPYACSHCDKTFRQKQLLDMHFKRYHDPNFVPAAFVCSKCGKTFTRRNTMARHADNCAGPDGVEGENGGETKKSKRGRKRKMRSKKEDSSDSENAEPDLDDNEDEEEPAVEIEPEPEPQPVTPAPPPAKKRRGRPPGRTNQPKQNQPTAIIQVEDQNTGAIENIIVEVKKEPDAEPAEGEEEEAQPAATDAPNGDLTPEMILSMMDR
UniProt Q9NWV4: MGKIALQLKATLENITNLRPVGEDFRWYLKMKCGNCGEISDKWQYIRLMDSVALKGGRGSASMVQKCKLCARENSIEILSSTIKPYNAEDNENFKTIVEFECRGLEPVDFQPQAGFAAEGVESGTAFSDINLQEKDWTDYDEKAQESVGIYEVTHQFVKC
UniProt P07711: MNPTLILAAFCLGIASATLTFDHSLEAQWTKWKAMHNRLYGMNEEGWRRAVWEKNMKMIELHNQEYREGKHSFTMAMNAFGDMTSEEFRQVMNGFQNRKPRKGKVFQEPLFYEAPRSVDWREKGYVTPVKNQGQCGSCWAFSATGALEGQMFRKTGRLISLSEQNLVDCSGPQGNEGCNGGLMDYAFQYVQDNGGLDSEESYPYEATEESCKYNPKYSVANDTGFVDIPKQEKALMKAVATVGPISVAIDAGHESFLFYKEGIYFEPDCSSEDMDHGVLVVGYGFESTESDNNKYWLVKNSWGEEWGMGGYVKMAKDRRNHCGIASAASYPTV
UniProt Q6PI48: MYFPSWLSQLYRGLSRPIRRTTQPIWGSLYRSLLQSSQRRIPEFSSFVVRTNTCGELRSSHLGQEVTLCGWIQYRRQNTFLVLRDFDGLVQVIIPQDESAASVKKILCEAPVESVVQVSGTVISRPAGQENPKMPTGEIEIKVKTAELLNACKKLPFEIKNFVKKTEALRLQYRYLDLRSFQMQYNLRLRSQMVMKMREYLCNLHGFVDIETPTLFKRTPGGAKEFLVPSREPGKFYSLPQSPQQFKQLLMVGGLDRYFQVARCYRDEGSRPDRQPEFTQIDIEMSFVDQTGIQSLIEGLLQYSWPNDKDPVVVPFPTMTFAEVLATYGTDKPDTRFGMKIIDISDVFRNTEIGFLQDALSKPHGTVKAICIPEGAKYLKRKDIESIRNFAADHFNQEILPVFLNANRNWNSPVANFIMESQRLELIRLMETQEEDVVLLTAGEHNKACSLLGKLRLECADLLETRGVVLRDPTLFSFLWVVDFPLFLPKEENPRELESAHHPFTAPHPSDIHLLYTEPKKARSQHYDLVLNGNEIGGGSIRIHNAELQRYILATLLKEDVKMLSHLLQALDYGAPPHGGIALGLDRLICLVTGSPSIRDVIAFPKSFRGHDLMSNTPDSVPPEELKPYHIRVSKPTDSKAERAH
UniProt Q9UBR2: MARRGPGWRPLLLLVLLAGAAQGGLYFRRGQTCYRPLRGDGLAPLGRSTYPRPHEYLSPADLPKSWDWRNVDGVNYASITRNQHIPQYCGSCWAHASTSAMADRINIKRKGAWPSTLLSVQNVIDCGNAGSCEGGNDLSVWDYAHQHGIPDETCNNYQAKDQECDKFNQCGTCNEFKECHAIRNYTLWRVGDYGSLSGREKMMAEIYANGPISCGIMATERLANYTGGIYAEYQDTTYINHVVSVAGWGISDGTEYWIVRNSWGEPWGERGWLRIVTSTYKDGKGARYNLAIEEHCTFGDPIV
UniProt Q8N465: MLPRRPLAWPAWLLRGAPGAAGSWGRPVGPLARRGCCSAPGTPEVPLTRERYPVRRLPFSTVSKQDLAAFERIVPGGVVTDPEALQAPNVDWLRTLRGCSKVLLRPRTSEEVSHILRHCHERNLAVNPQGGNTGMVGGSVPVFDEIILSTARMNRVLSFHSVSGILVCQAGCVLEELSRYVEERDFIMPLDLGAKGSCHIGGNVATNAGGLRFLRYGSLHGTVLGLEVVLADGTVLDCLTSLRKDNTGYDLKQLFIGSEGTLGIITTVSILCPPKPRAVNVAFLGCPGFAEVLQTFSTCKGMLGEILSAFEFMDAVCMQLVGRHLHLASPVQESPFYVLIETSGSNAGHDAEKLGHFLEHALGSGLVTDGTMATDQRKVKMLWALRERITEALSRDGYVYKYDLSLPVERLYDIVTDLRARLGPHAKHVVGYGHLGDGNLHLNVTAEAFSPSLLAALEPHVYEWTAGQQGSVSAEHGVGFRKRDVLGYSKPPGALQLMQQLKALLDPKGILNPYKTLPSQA
UniProt Q5QP82: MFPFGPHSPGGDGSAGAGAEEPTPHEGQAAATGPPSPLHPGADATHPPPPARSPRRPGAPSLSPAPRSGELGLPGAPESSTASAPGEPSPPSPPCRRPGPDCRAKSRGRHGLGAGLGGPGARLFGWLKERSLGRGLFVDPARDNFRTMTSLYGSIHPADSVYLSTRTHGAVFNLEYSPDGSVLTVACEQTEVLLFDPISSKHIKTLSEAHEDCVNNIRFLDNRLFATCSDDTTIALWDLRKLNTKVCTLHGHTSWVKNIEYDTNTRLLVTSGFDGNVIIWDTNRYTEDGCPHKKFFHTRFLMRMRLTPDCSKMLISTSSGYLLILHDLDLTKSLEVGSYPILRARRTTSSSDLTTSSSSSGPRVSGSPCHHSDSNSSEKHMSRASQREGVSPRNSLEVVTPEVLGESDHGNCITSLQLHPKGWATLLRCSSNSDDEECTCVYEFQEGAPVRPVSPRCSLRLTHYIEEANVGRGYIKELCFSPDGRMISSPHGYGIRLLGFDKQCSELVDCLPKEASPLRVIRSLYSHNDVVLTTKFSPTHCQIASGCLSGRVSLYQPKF
UniProt Q5JQC4: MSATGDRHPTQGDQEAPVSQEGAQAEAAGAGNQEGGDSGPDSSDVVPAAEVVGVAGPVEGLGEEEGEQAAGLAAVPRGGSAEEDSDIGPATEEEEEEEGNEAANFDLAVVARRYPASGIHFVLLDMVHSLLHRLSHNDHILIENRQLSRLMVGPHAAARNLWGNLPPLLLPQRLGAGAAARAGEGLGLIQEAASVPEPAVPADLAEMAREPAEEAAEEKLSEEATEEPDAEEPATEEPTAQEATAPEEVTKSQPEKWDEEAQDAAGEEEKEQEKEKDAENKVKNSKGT
UniProt P32929, whole entry, looked up: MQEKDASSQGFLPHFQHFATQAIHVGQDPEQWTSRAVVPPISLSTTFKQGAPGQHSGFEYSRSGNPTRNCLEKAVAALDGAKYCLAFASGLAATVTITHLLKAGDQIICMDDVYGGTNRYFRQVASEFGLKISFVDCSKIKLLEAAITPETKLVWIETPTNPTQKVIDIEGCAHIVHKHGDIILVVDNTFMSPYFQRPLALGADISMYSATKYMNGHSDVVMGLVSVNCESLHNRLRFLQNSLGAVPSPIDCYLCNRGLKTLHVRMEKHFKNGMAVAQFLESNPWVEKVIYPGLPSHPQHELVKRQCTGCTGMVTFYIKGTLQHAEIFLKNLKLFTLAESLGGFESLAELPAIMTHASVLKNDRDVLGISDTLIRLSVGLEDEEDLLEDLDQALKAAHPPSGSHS

[1] = compound: Cc1cccc(CC(=O)N2CCc3c2ccc(-c2cn(C)c4ncnc(N)c24)c3F)n1
How it was run: as §1

nilotinib = compound: Cc1cn(-c2cc(NC(=O)c3ccc(C)c(Nc4nccc(-c5cccnc5)n4)c3)cc(C(F)(F)F)c2)cn1 [nilotinib]
How it was run: as §1

[2] = compound: Cc1nc(Nc2n[nH]c3c2CN(C(=O)N[C@H](CN(C)C)c2ccccc2)C3(C)C)c2sccc2n1
How it was run: as §1

dasatinib = compound: Cc1nc(Nc2ncc(C(=O)Nc3c(C)cccc3Cl)s2)cc(N2CCN(CCO)CC2)n1 [dasatinib]
How it was run: as §1

[3] = compound: Cc1ncc(-c2ccnc(Nc3ccc(S(C)(=O)=O)cc3)n2)n1C(C)C
How it was run: as §1

[4] = compound: Cn1cc(-c2ccc3c(c2)CCN3C(=O)Cc2cccc(C(F)(F)F)c2)c2c(N)ncnc21
How it was run: as §1

[5] = compound: Cn1cc(-c2ccc3nnc(C(F)(F)c4ccc5ncccc5c4)n3n2)cn1
How it was run: as §1

tipifarnib = compound: Cn1cncc1[C@@](N)(c1ccc(Cl)cc1)c1ccc2c(c1)c(-c1cccc(Cl)c1)cc(=O)n2C [tipifarnib]
How it was run: as §1

mubritinib = compound: FC(F)(F)c1ccc(/C=C/c2nc(COc3ccc(CCCCn4ccnn4)cc3)co2)cc1 [mubritinib]
How it was run: as §1

[6] = compound: NC(=O)Nc1cc(-c2cccc(F)c2)sc1C(=O)N[C@H]1CCCNC1
How it was run: as §1

[7] = compound: NC(=O)c1cnc(N[C@@H]2CCCC[C@@H]2N)nc1Nc1cccc(-n2nccn2)c1
How it was run: as §1

[8] = compound: NC1(c2ccc(-c3nc4ccn5c(=O)[nH]nc5c4cc3-c3ccccc3)cc2)CCC1
How it was run: as §1

[9] = compound: NCC(=O)Nc1ccc(-n2nc(C(F)(F)F)cc2-c2ccc3c(ccc4ccccc43)c2)cc1
How it was run: as §1

entinostat = compound: Nc1ccccc1NC(=O)c1ccc(CNC(=O)OCc2cccnc2)cc1 [entinostat]
How it was run: as §1

vorinostat = compound: O=C(CCCCCCC(=O)Nc1ccccc1)NO [vorinostat]
How it was run: as §1

citarinostat = compound: O=C(CCCCCCNC(=O)c1cnc(N(c2ccccc2)c2ccccc2Cl)nc1)NO [citarinostat]
How it was run: as §1

silmitasertib = compound: O=C(O)c1ccc2c(c1)nc(Nc1cccc(Cl)c1)c1ccncc12 [silmitasertib]
How it was run: as §1

[10] = compound: O=C1NC(=O)C(c2cnc3ccccn23)=C1c1cn2c3c(cc(F)cc13)CN(C(=O)N1CCCCC1)CC2
How it was run: as §1

[11] = compound: c1cc(OCCN2CCCCC2)cc(-c2n[nH]c3ccc(-c4nnc[nH]4)cc23)c1
How it was run: as §1

Row | Target | log2 fold change (bafetinib) | log2 fold change [1] | log2 fold change (nilotinib) | log2 fold change [2] | log2 fold change (dasatinib) | log2 fold change [3] | log2 fold change [4] | log2 fold change [5] | log2 fold change (tipifarnib) | log2 fold change (mubritinib) | log2 fold change [6] | log2 fold change [7] | log2 fold change [8] | log2 fold change [9] | log2 fold change (entinostat) | log2 fold change (vorinostat) | log2 fold change (citarinostat) | log2 fold change (silmitasertib) | log2 fold change [10] | log2 fold change [11]
1 | CYCS (UniProt P99999) | inactive: -0.049 | inactive: -0.031 | inactive: 0.147 | inactive: -0.011 | inactive: 0.035 | inactive: -0.013 | inactive: 0.017 | inactive: -0.009 | inactive: -0.027 | inactive: 0.015 | inactive: 0.017 | inactive: 0.044 | inactive: 0.013 | inactive: 0.019 | inactive: -0.039 | inactive: -0.038 | inactive: 0.002 | inactive: -0.02 | inactive: -0.027 | inactive: -0.003
2 | CYFIP2 (UniProt Q96F07) | inactive: -0.048 | inactive: 0.016 | inactive: -0.009 | inactive: -0.058 | inactive: -0.11 | inactive: -0.054 | inactive: 0.001 | inactive: 0.002 | inactive: 0.022 | inactive: 0.071 | inactive: -0.056 | inactive: -0.009 | inactive: -0.154 | inactive: -0.055 | inactive: 0 | inactive: 0.055 | inactive: -0.007 | inactive: 0.005 | inactive: -0.001 | inactive: -0.027
3 | CWC27 (UniProt Q6UX04) | inactive: -0.147 | inactive: -0.059 | inactive: -0.058 | inactive: -0.094 | inactive: -0.087 | inactive: 0.132 | inactive: 0.056 | inactive: 0.022 | inactive: -0.146 | inactive: 0.109 | inactive: -0.062 | inactive: 0.016 | inactive: -0.142 | inactive: -0.103 | inactive: 0.113 | inactive: 0.062 | inactive: 0.089 | inactive: 0.062 | inactive: -0.092 | inactive: 0.026
4 | DAGLB (UniProt Q8NCG7) | inactive: -0.045 | inactive: -0.031 | inactive: 0.005 | inactive: 0.001 | inactive: -0.014 | inactive: -0.015 | inactive: 0.011 | inactive: 0.087 | inactive: -0.014 | inactive: 0.078 | inactive: 0.027 | inactive: -0.03 | inactive: -0.012 | inactive: -0.04 | inactive: -0.004 | inactive: 0.056 | inactive: 0.027 | inactive: -0.045 | inactive: -0.02 | inactive: 0
5 | CTCF (UniProt P49711) | inactive: 0.195 | inactive: -0.055 | inactive: 0.166 | inactive: -0.144 | inactive: 0.171 | inactive: 0.002 | inactive: -0.467 | inactive: -0.163 | inactive: 0.17 | inactive: -0.091 | inactive: 0.086 | inactive: 0.219 | inactive: 0.23 | inactive: 0.188 | inactive: -0.076 | inactive: 0.001 | inactive: -0.122 | inactive: 0.098 | inactive: 0.226 | inactive: -0.15
6 | CZIB (UniProt Q9NWV4) | inactive: -0.075 | inactive: -0.026 | inactive: 0.012 | inactive: -0.012 | inactive: -0.016 | inactive: 0.018 | inactive: -0.012 | inactive: 0.023 | inactive: 0.017 | inactive: 0.019 | inactive: -0.057 | inactive: -0.059 | inactive: -0.031 | inactive: -0.05 | inactive: -0.031 | inactive: 0.01 | inactive: 0.025 | inactive: 0.001 | inactive: -0.075 | inactive: -0.029
7 | CTSL (UniProt P07711) | inactive: -0.261 | inactive: -0.046 | inactive: 0.041 | inactive: 0.103 | inactive: 0.14 | inactive: 0.004 | inactive: 0.013 | inactive: 0.045 | inactive: 0.145 | inactive: -0.006 | inactive: 0.082 | inactive: -0.045 | inactive: -0.123 | inactive: 0.039 | inactive: -0.074 | inactive: -0.053 | inactive: -0.018 | inactive: 0.027 | inactive: -0.079 | inactive: -0.011
8 | DARS2 (UniProt Q6PI48) | inactive: 0.002 | inactive: -0.025 | inactive: -0.011 | inactive: 0.065 | inactive: 0.02 | inactive: 0 | inactive: -0.015 | inactive: -0.014 | inactive: -0.013 | inactive: -0.01 | inactive: 0.003 | inactive: 0.005 | inactive: -0.016 | inactive: 0.027 | inactive: -0.029 | inactive: 0.017 | inactive: 0.052 | inactive: 0.027 | inactive: 0.004 | inactive: -0.025
9 | CTSZ (UniProt Q9UBR2) | active: -1.01 | inactive: -0.027 | inactive: 0.028 | inactive: -0.146 | inactive: 0.054 | inactive: -0.022 | inactive: 0.058 | inactive: 0.022 | inactive: 0.052 | inactive: 0.033 | inactive: -0.029 | inactive: -0.005 | active: -0.511 | inactive: 0.044 | inactive: -0.023 | inactive: 0.013 | inactive: 0.019 | inactive: 0.008 | inactive: -0.047 | inactive: 0.006
10 | CUL1 (UniProt Q13616) | inactive: -0.025 | inactive: 0.005 | inactive: 0.014 | inactive: 0.01 | inactive: 0.043 | inactive: 0.006 | inactive: 0.022 | inactive: 0.007 | inactive: -0.014 | inactive: 0.032 | inactive: 0.002 | inactive: 0.011 | inactive: -0.002 | inactive: 0.036 | inactive: -0.021 | inactive: -0.004 | inactive: 0.03 | inactive: 0.015 | inactive: -0.036 | inactive: -0.016
11 | D2HGDH (UniProt Q8N465) | inactive: -0.033 | inactive: -0.037 | inactive: 0.001 | inactive: 0.098 | inactive: 0.006 | inactive: -0.121 | inactive: 0.042 | inactive: -0.001 | inactive: -0.058 | inactive: 0.134 | inactive: -0.015 | inactive: -0.004 | inactive: -0.008 | inactive: -0.014 | inactive: -0.121 | inactive: 0.301 | inactive: 0.007 | inactive: 0.012 | inactive: 0.006 | inactive: -0.16
12 | DCAF10 (UniProt Q5QP82) | inactive: -0.002 | inactive: -0.069 | inactive: -0.052 | inactive: 0.041 | inactive: 0.026 | inactive: -0.047 | inactive: 0.012 | inactive: 0.007 | inactive: -0.054 | inactive: -0.002 | inactive: -0.018 | inactive: -0.02 | inactive: 0.026 | inactive: 0.033 | inactive: -0.021 | inactive: -0.015 | inactive: 0.08 | inactive: 0.122 | inactive: -0.028 | active: 0.357
13 | CT47A1 (UniProt Q5JQC4) | inactive: -0.153 | inactive: 0.061 | inactive: -0.01 | inactive: -0.054 | inactive: 0.011 | inactive: 0.036 | inactive: -0.048 | inactive: -0.033 | inactive: -0.071 | inactive: -0.102 | inactive: 0.041 | inactive: 0.02 | inactive: -0.037 | inactive: 0.07 | inactive: -0.024 | inactive: -0.007 | inactive: 0.041 | inactive: 0.022 | inactive: 0.02 | inactive: -0.089
14 | CYP20A1 (UniProt Q6UW02) | inactive: 0.004 | inactive: -0.041 | inactive: -0.042 | inactive: -0.046 | inactive: -0.081 | inactive: 0.01 | inactive: 0.033 | inactive: -0.039 | inactive: 0.013 | inactive: 0.029 | inactive: -0.034 | inactive: -0.052 | inactive: -0.102 | inactive: -0.039 | inactive: -0.022 | inactive: 0.03 | inactive: 0.063 | inactive: -0.001 | inactive: -0.017 | inactive: -0.052
15 | DAB2 (UniProt P98082) | inactive: -0.041 | inactive: 0.085 | inactive: -0.152 | inactive: 0.002 | inactive: -0.178 | inactive: -0.098 | inactive: 0.01 | inactive: -0.007 | inactive: -0.042 | inactive: -0.024 | inactive: -0.006 | inactive: -0.033 | inactive: -0.124 | inactive: 0.016 | inactive: -0.026 | inactive: -0.066 | inactive: 0.037 | inactive: 0.102 | inactive: 0.001 | inactive: -0.041
16 | CTH (UniProt P32929) | inactive: 0.028 | inactive: 0.011 | inactive: -0.022 | inactive: -0.006 | inactive: 0.021 | inactive: -0.036 | inactive: 0.025 | inactive: -0.062 | inactive: -0.037 | inactive: -0.012 | inactive: 0.074 | inactive: 0.025 | inactive: -0.005 | inactive: 0.058 | inactive: 0.025 | inactive: -0.061 | inactive: 0.1 | inactive: 0 | inactive: -0.028 | inactive: 0.012

From entry 7 up to 10, copied from above:
Row | Target | log2 fold change (bafetinib) | log2 fold change [1] | log2 fold change (nilotinib) | log2 fold change [2] | log2 fold change (dasatinib) | log2 fold change [3] | log2 fold change [4] | log2 fold change [5] | log2 fold change (tipifarnib) | log2 fold change (mubritinib) | log2 fold change [6] | log2 fold change [7] | log2 fold change [8] | log2 fold change [9] | log2 fold change (entinostat) | log2 fold change (vorinostat) | log2 fold change (citarinostat) | log2 fold change (silmitasertib) | log2 fold change [10] | log2 fold change [11]
7 | CTSL (UniProt P07711) | inactive: -0.261 | inactive: -0.046 | inactive: 0.041 | inactive: 0.103 | inactive: 0.14 | inactive: 0.004 | inactive: 0.013 | inactive: 0.045 | inactive: 0.145 | inactive: -0.006 | inactive: 0.082 | inactive: -0.045 | inactive: -0.123 | inactive: 0.039 | inactive: -0.074 | inactive: -0.053 | inactive: -0.018 | inactive: 0.027 | inactive: -0.079 | inactive: -0.011
8 | DARS2 (UniProt Q6PI48) | inactive: 0.002 | inactive: -0.025 | inactive: -0.011 | inactive: 0.065 | inactive: 0.02 | inactive: 0 | inactive: -0.015 | inactive: -0.014 | inactive: -0.013 | inactive: -0.01 | inactive: 0.003 | inactive: 0.005 | inactive: -0.016 | inactive: 0.027 | inactive: -0.029 | inactive: 0.017 | inactive: 0.052 | inactive: 0.027 | inactive: 0.004 | inactive: -0.025
9 | CTSZ (UniProt Q9UBR2) | active: -1.01 | inactive: -0.027 | inactive: 0.028 | inactive: -0.146 | inactive: 0.054 | inactive: -0.022 | inactive: 0.058 | inactive: 0.022 | inactive: 0.052 | inactive: 0.033 | inactive: -0.029 | inactive: -0.005 | active: -0.511 | inactive: 0.044 | inactive: -0.023 | inactive: 0.013 | inactive: 0.019 | inactive: 0.008 | inactive: -0.047 | inactive: 0.006
10 | CUL1 (UniProt Q13616) | inactive: -0.025 | inactive: 0.005 | inactive: 0.014 | inactive: 0.01 | inactive: 0.043 | inactive: 0.006 | inactive: 0.022 | inactive: 0.007 | inactive: -0.014 | inactive: 0.032 | inactive: 0.002 | inactive: 0.011 | inactive: -0.002 | inactive: 0.036 | inactive: -0.021 | inactive: -0.004 | inactive: 0.03 | inactive: 0.015 | inactive: -0.036 | inactive: -0.016
